# Measurements taken from paper PMC4013589, “LXXLL Peptide Converts Transportan 10 to a Potent Inducer of Apoptosis in Breast Cancer Cells” (International Journal of Molecular Sciences, 2014).
# Chains of the proteins cited; added tags and fusions are not shown. Lines headed by an entry give the natural chain unless they say otherwise; changes in a name come on top.
# UniProt Q15788: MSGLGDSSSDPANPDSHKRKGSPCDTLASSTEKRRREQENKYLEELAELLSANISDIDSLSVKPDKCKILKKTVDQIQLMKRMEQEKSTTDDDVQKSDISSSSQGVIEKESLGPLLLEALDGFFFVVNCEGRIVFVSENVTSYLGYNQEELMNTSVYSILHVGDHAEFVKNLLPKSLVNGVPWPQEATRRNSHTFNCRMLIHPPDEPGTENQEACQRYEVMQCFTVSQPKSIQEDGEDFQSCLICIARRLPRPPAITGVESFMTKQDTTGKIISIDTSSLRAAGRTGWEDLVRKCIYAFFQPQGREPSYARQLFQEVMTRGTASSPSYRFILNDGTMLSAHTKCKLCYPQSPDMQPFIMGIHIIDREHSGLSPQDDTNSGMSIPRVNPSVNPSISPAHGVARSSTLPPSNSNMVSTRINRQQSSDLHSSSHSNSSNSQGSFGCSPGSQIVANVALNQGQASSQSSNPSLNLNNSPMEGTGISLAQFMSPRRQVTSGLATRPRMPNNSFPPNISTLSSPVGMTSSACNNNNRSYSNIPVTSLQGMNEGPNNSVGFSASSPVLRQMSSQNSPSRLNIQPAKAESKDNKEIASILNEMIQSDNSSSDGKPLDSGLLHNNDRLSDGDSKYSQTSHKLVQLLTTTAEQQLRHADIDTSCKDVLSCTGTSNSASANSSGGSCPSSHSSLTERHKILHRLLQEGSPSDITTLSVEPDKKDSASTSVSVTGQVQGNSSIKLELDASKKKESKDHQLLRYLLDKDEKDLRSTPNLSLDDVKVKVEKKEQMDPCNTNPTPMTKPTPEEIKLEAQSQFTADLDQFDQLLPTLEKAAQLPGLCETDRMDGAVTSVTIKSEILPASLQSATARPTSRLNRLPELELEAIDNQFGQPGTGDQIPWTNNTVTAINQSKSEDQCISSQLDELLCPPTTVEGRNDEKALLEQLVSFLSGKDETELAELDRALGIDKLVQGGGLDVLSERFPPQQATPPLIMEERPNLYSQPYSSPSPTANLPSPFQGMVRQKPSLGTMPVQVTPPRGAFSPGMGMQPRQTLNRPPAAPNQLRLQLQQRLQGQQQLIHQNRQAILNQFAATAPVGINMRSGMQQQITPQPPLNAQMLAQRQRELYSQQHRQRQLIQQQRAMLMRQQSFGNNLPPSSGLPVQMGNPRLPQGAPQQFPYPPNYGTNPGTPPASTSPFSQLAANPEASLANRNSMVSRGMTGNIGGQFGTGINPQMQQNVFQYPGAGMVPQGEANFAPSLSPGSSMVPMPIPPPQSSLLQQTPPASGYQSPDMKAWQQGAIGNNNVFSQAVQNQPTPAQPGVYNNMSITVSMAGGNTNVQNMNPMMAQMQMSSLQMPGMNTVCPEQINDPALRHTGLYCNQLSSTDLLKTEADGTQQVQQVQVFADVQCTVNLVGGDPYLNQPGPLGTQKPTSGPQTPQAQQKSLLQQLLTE
# Some compounds share one wording; it may come from a single statement. Where no end group is shown, it is not given here.
# Test system: MCF-7 cells
# Assay: Confocal microscopy of live cells, cellular distribution of FITC-labeled peptides
# Type: cell-based, human
# Settings: 5 μM FITC-labeled peptide, 1 h, 37 °C, serum-free stimulation medium, live-cell confocal microscopy
row,Substance,Cellular uptake / subcellular localization
1,"NLS-RRRRRRR-PQMQQNVFQYPGAGMVPQGEANF (NPQMQQNVFQYPGAGMVPQGEANF; N-terminal R7; UniProt Q15788 1222-1245, looked up, fragment) [R7-SRC1_1222–1245, randomly chosen non-structured fragment of SRC-1 with N-terminal R7; negative control]",detected in the cytoplasm and nucleus
2,NLS-RRRRRRR-YSQTSHKLVQLLTTAEQQ [R7-SRC1LXXLL],detected in the cytoplasm and nucleus
3,PKKKRKVAGYLLGKINLKALAALAKKILYSQTSHKLVQLLTTAEQQ [TP10-SRC1LXXLL],detected in the cytoplasm and nucleus
